Measured values taken from PubChem BioAssay AID2685 (National Center for Advancing Translational Sciences (NCATS), 2010).
Some of the results follow. Shown are side measurements of this screen, not its main read-out; they come without a call. Compounds called inactive in the main read-out are mostly missing here. The note in brackets gives the kind of curve behind each potency; many fits are weak.

Assay: qHTS Assay for Lipid Storage Modulators in Drosophila S3 Cells;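 as to cell number change: cells counted by Cell Tracker Red CMTPX staining in the red channel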
Details: BODIPY lipid droplet fluorescence, 18-24 h; for cell number change: measured here: cell count max response, cells fed with added oleic acid
How it was run: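 Laser-scanning cytometry quantifies lipid droplet accumulation (500–530 nm total intensity; droplet/cell object ratio) in oleic acid-fed (400 uM added) Drosophila S3 cells treated with a concentration series. 20 uM Triacsin C defined 100% inhibition.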

[1] = measured here: cell number channel AC50, cells fed with added oleic acid
[2] = measured here: lipid fluorescence (Fed channel) AC50, cells fed with added oleic acid

Compound	cell number change [%]	AC50 [1]	AC50 [2]
O=c1c2ccccc2nnn1CSc1nc2ccccc2c(=O)n1CCCO	4.53	4.11 µM [rising, partial curve, poor fit]	3.26 µM [rising, partial curve]
Cc1ccc(C(=O)Nc2ccc(N3CCN(C)CC3)nc2)cc1		4.61 µM [falling, single point]	1.84 µM [falling, partial curve]
COc1ccc(N2CCN(C(=O)COC(=O)CNC(=O)c3ccccc3)CC2)cc1			6.51 µM [falling, single point]
CC(C)(C)c1cc(CP(=O)(c2ccccc2)c2ccccc2)cc(C(C)(C)C)c1O	-29.2		29.1 µM [falling, single point]
COc1cccc(C(=O)Nc2ccc(N3CCN(Cc4ccccc4)CC3)cc2)c1	32.1	0.00461 µM [rising, full curve, poor fit]	
Nc1c(Cl)cc(C2=NCCn3nc4cc(C(F)(F)F)ccc4c32)cc1Cl	-62.5	18.4 µM [falling, single point]	6.51 µM [falling, partial curve, poor fit]
O=C(CCNC(=O)c1ccccc1Cl)Nc1cccc(S(=O)(=O)N2CCCCC2)c1	-23.5		0.731 µM [falling, full curve, poor fit]
N/C(=N\OC(=O)C1CCCCC1)c1cccc(Br)c1	8.19	6.51 µM [rising, single point]	
COc1ccc(CCC(=O)Nc2ccc(S(=O)(=O)N3CCOCC3)cc2)cc1	16.8	0.00517 µM [rising, full curve, poor fit]	
O=C(NCCc1ccccc1)c1ccc(Cn2c(SCc3cccc(F)c3)nc3cccnc32)cc1	28.1		20.6 µM [rising, partial curve]
CCCN(Cc1ccccc1)C(=S)Nc1ccc(C(C)=O)cc1	-18.7		29.1 µM [falling, single point]
O=C(NC1CCCCCC1)c1ccc(Br)o1	-3.81		
O=C(CSc1nc(-c2ccco2)cc(C(F)(F)F)n1)NCc1cccs1	-15.1		0.517 µM [rising, full curve, poor fit]
CCN(CC)S(=O)(=O)c1ccc(OC)c(NC(=O)c2cccc(C)c2[N+](=O)[O-])c1	9.83		
Nc1nc(SCCOc2ccccc2)n[nH]1			0.13 µM [rising, full curve, poor fit]
CC(=O)Nc1ccc(NC(=O)c2ccc(-n3c(C)ccc3C)cc2)cc1	6.93		2.31 µM [rising, full curve, poor fit]
C=CCn1c(CSc2nc3ccccc3s2)n[nH]c1=S	42	29.1 µM [rising, single point]	
O=C(COc1ccc2c3c(c(=O)oc2c1)CCCC3)N[C@@H](Cc1ccccc1)C(=O)O	12.6		
COc1cccc(NC(=O)CN(c2ccc3c(c2)OCO3)S(C)(=O)=O)c1	-4.03		3.66 µM [falling, single point]
CCOC(=O)CCNC(=O)N1CCCC(C(=O)c2ccc3c(c2)OCO3)C1 (configuration not stated)	-20.9		8.2 µM [falling, partial curve]
CCc1nc(SCC(=O)Nc2cccc(C(F)(F)F)c2)c2c(=O)n(C)c(=O)n(C)c2n1	94.5	4.61 µM [rising, partial curve]	1.64 µM [rising, partial curve, poor fit]
Cc1cccc(Oc2c(C=O)c3ccccc3n2C)c1	29		14.6 µM [rising, partial curve]

Compound	cell number change [%]	AC50 [1]	AC50 [2]
CCOC(=O)c1nnn(-c2nonc2N)c1C	48.3	0.326 µM [rising, full curve]	
CCCCc1nc2cc(C(=O)N3CCCCC3CCNC(C)=O)ccc2o1 (configuration not stated)	3.97		
Cc1ccc2cc(C#N)c(NCCNC(=S)NCCCN3CCOCC3)nc2c1	-41.8	29.1 µM [falling, single point]	
O=S(=O)(NCc1nnc2c(C(F)(F)F)cc(Cl)cn12)c1ccccc1	10.8		
CCOC(=O)C1=C(Nc2ccc(Cl)cc2)OCC1=O	9.38		5.17 µM [falling, single point]
COc1ccc(CNc2nn[nH]n2)cc1OC	-9.14		23.1 µM [falling, partial curve]
CN(C)CC(C)(C)CNC(=O)c1cc(Br)cc(Br)c1O	39.3		
COc1ccc(C(=O)CCC(=O)O)cc1	-1.42		1.3 µM [rising, partial curve]
CCCN1CCN(c2ncnc3c2nnn3Cc2ccccc2)CC1	30.9	0.116 µM [rising, full curve]	
CC(C)C(c1nnnn1Cc1ccco1)N1CCN(c2nc3ccccc3s2)CC1 (configuration not stated)	-25.2		4.11 µM [rising, single point]
COCCNC(=O)CCc1c(C)nc2c(-c3ccc(F)cc3)c(C)nn2c1C	-9.45		
COC(=O)c1ccc(CNC(=O)C2CCC(=O)N(CCc3ccccc3)C2)cc1 (configuration not stated)		0.82 µM [falling, single point]	
CCOC(=O)c1sc(=S)n(-c2ccccc2)c1C	-28.8		
COC(C(=O)Nc1ccnn1C1CCN(Cc2cnn(C)c2)CC1)c1ccccc1 (configuration not stated)	32.6	9.2 µM [rising, partial curve]	29.1 µM [rising, single point]
Cc1[nH]c2ccc(F)cc2c1CCN(Cc1cccnc1)C(=S)Nc1cccc(F)c1	24.2		
CSc1ncc(CN2CCN(C3CCCCC3)C(CCO)C2)cn1 (configuration not stated)	3.18		0.146 µM [falling, full curve, poor fit]
CCCCn1c(-c2cccc(F)c2)nc2c1c(=O)[nH]c(=O)n2CC(C)C	3.81		
COc1ccc(CN2CC34C=CC(O3)C(C(=O)O)C4C2=O)cc1 (configuration not stated)	-0.681		
CC(=O)c1cccc(Nc2nc(-c3sc(C)nc3C)cs2)c1	-63.5	4.11 µM [falling, full curve]	6.51 µM [falling, single point]
Cn1nc(N)c2c(-c3ccccc3)c(C#N)c(N)nc21	8.63		0.00461 µM [rising, full curve, poor fit]
CCOc1ccc(C(=O)Nc2cccc(-c3ccc(N4CCOCC4)nn3)c2)cc1OCC			1.46 µM [rising, partial curve]
COc1ccccc1Oc1ccc(N/C=C/C(=O)c2ccc(C)o2)cc1	1.58	3.26 µM [rising, single point]	

Compound	cell number change [%]	AC50 [1]	AC50 [2]
CC(C)c1ccc(N=C(N)N=C(N)N)cc1	-6.91		0.731 µM [falling, single point]
ClCC1=Nc2cccc3cccc(c23)N1	1.09		
CCSc1nnc(NC(=O)CSc2ncccn2)s1	86.7	29.1 µM [rising, single point]	
Cc1ccc(-c2nc3cnccn3c2Nc2c(C)cccc2C)o1	45.3	14.6 µM [rising, single point]	
Cc1ccc(C(=O)N[C@H](C(=O)Nc2ccc(N3CCOCC3)cc2)C(C)C)cc1	-38.6	0.116 µM [falling, full curve]	
COc1cccc(NC(=S)N(Cc2ccc(C(=O)O)cc2)Cc2ccc(OC)c(OC)c2)c1	10.6		
COc1cc(/C=C/C(=O)O)cc(S(=O)(=O)NCCCC(=O)O)c1OC	-44.3	29.1 µM [falling, single point]	
O=C(O)/C(=C\c1ccc(C(F)(F)F)cc1)c1ccc(S(=O)(=O)N2CCCC2)s1	10	0.326 µM [falling, single point]	
CCn1c2ccccc2c2cc(NC(=O)N3CCOCC3)ccc21	11.4		0.651 µM [rising, full curve]
CCOC(=O)c1c(C)[nH]c(C(=O)COC(=O)COc2ccccc2C=O)c1C	-0.088		
CCOc1ccccc1CNC(=O)CCCn1ncn2c(cc3occc32)c1=O			29.1 µM [falling, single point]
CC(C)[C@H](NC(=O)[C@@H]1CSC2c3ccccc3C(=O)N21)C(=O)N1CCCCC1 (some centres not stated)	-11.1		29.1 µM [rising, single point]
O=C(CN(c1cc(Cl)ccc1Cl)S(=O)(=O)c1ccccc1)N1CCOCC1	-18.5		23.1 µM [falling, partial curve, poor fit]
O=C(C1=C[C@@H]2[C@H]3C(=O)N(c4cccc(Cl)c4)C(=O)[C@H]3[C@@H](C(=O)c3ccc(Cl)cc3)N2C=C1)c1ccccc1	93.2	2.59 µM [rising, full curve]	
COc1ccc(S(=O)(=O)N(C)CC(=O)Nc2cccc(C(C)=O)c2)cc1C	85.1	29.1 µM [rising, single point]	18.4 µM [rising, partial curve]
COc1ccc2[nH]c(=O)c(CNC3CCCCC3)cc2c1		4.11 µM [falling, single point]	
O=C(CN1CCOCC1)Nc1cccc(S(=O)(=O)N2CCCCCC2)c1	37.3		0.103 µM [rising, full curve, poor fit]
CCCCn1c(CCC(=O)O)nc2c1c(=O)[nH]c(=O)n2CCC	-74.4	18.4 µM [falling, single point]	20.6 µM [falling, single point]
CCOC(=O)c1cnc2c(-c3ccc(F)cc3)cnn2c1C(F)(F)F	-32	0.82 µM [falling, full curve, poor fit]	0.58 µM [falling, full curve]
Cc1ccn2cc(CCNS(=O)(=O)c3ccc(F)c(C(F)(F)F)c3)nc2c1	-2.87	1.84 µM [falling, single point]	7.31 µM [falling, partial curve]

Retrieved one by one from the list above, 4 records:
Compound	cell number change [%]	AC50 [1]	AC50 [2]
COc1cc(/C=C/C(=O)O)cc(S(=O)(=O)NCCCC(=O)O)c1OC	-44.3	29.1 µM [falling, single point]	
CCOC(=O)c1c(C)[nH]c(C(=O)COC(=O)COc2ccccc2C=O)c1C	-0.088		
O=C(CN1CCOCC1)Nc1cccc(S(=O)(=O)N2CCCCCC2)c1	37.3		0.103 µM [rising, full curve, poor fit]
COc1cccc(NC(=S)N(Cc2ccc(C(=O)O)cc2)Cc2ccc(OC)c(OC)c2)c1	10.6		
